Laboratory results: PubChem BioAssay AID1671195 (Yale University, 2021)
The whole screen tested about 22,000 reagents; this is an unselected part. Over the whole deposit, about 1,510 (6.9%) were called active. 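Active includes knockdowns raising or lowering LDL uptake; positive z-scores mean more uptake, negative mean less.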 Entries without a mark were called inactive.

- Screen: 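Regulators of LDL receptor activity judged by labelled LDL uptake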 (primary screen)
- Cell system: human Huh7 hepatoma cells
- Knock-down reagent: siRNA pool against human genes, 18 nM
- Duration: about 2 to 2.5 days of knockdown, then 8 h LDL uptake
- Challenge: DiI-labelled LDL at 30 µg/ml for 8 h, in lipoprotein-deficient serum medium
- Detection: 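Per-cell DiI-LDL intensity by automated imaging; well means scaled to the plate median and given as a robust z-score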
- Reading the numbers: robust z-score: higher = more LDL uptake after knockdown
- Active means: 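Active when two or more replicates show a robust z-score above 2 or below -2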

MGAM: robust z-score, replicate 1 = 0.601; robust z-score, replicate 2 = 1.42; robust z-score, replicate 3 = 1.52
CRY2: robust z-score, replicate 1 = -0.9; robust z-score, replicate 2 = 0.41; robust z-score, replicate 3 = -0.383
TXN2: robust z-score, replicate 1 = 0.0298; robust z-score, replicate 2 = -0.172; robust z-score, replicate 3 = -0.129
LOC440844 (retired record): robust z-score, replicate 1 = -2.84; robust z-score, replicate 2 = -0.711; robust z-score, replicate 3 = -0.618
LMOD1: robust z-score, replicate 1 = -1.3; robust z-score, replicate 2 = -2.34; robust z-score, replicate 3 = -0.353
DDX59: robust z-score, replicate 1 = -1.11; robust z-score, replicate 2 = -0.952; robust z-score, replicate 3 = -0.652
NDUFA7: robust z-score, replicate 1 = 0.747; robust z-score, replicate 2 = -0.773; robust z-score, replicate 3 = -0.707
WTIP: robust z-score, replicate 1 = -0.699; robust z-score, replicate 2 = -0.497; robust z-score, replicate 3 = -0.638
KNCN: robust z-score, replicate 1 = 1.26; robust z-score, replicate 2 = 1.98; robust z-score, replicate 3 = 1.4
DUOX2: robust z-score, replicate 1 = -0.572; robust z-score, replicate 2 = -0.472; robust z-score, replicate 3 = -0.362
SNRPD1: robust z-score, replicate 1 = -0.242; robust z-score, replicate 2 = -0.619; robust z-score, replicate 3 = -0.648
TONSL: robust z-score, replicate 1 = 2.05 (active); robust z-score, replicate 2 = 1.63; robust z-score, replicate 3 = 2.72
LOC402426 (retired record): robust z-score, replicate 1 = -1.07; robust z-score, replicate 2 = -0.368; robust z-score, replicate 3 = -0.906
TAPT1-AS1: robust z-score, replicate 1 = -0.221; robust z-score, replicate 2 = -0.167; robust z-score, replicate 3 = -0.376
TXNDC2: robust z-score, replicate 1 = -0.734; robust z-score, replicate 2 = -0.98; robust z-score, replicate 3 = -0.912
FGF10: robust z-score, replicate 1 = 0.0744; robust z-score, replicate 2 = -0.617; robust z-score, replicate 3 = -0.48
PALMD: robust z-score, replicate 1 = -0.0879; robust z-score, replicate 2 = 0.274; robust z-score, replicate 3 = 0.35
DEDD: robust z-score, replicate 1 = -0.144; robust z-score, replicate 2 = -0.00641; robust z-score, replicate 3 = -0.653
RALYL: robust z-score, replicate 1 = -0.834; robust z-score, replicate 2 = -1.75; robust z-score, replicate 3 = -0.923
LINC02245: robust z-score, replicate 1 = 0.217; robust z-score, replicate 2 = -0.516; robust z-score, replicate 3 = -0.136
ARHGAP19: robust z-score, replicate 1 = 1.43; robust z-score, replicate 2 = 1.19; robust z-score, replicate 3 = -0.747
ASB16: robust z-score, replicate 1 = 1.02; robust z-score, replicate 2 = 1.19; robust z-score, replicate 3 = 1.31
AP1G1: robust z-score, replicate 1 = 0.299; robust z-score, replicate 2 = -0.277; robust z-score, replicate 3 = 0.664
NKAIN2: robust z-score, replicate 1 = -1.28; robust z-score, replicate 2 = -0.987; robust z-score, replicate 3 = -1.36

Reagents listed above marked active:
TONSL: robust z-score, replicate 1 = 2.05 (active); robust z-score, replicate 2 = 1.63; robust z-score, replicate 3 = 2.72
